Assay results published in the supplement of paper PMC9877034.
Structures can show the parent of a compound that is named as a salt. Over roughly 1,000 compounds, “cFRET/donor change relative to DMSO, normalised to beta-lapachone positive control (supercomplex I-IV assembly)” has its median near 0.18; the lowest 2% begin near -1. Some of the results follow.

Test system: C2C12 (NDUFB8-AcGFP / COX8A-DsRed-Monomer FRET reporter)
Test: cFRET/donor change relative to DMSO, normalised to beta-lapachone positive control (supercomplex I-IV assembly) (fraction of beta-lapachone effect); higher = more respiratory supercomplex assembly
Details: 40 µM; 24 h
Description: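 Cells were treated with 40 uM compound for 24 h and imaged on an IN Cell Analyzer 6000. Corrected FRET was divided by donor signal (cFRET/donor) and measured in two replicate experiments. The score is (mean cFRET/donor of compound - mean DMSO) / (mean beta-lapachone 40 uM - mean DMSO). Compounds flagged for prominent cell death, abnormal morphology or decreased cell number were excluded.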

Compound | cFRET/donor change
Cc1ccccc1/C=C/C1=NCCN1 [Metrazoline oxalate] | 0.469
Clc1ccc2c(c1)N=C(N1CCNCC1)c1ccccc1N2 [N-Desmethylclozapine] | 0.316
COc1cc2c(CCNC(C)=O)c[nH]c2cc1O [6-Hydroxymelatonin] | 0.0831
COc1cc2c(cc1O)CC[C@@H]1[C@@H]2CC[C@]2(C)[C@@H](O)CC[C@@H]12 [2-methoxyestradiol] | 0.518
CNC(=O)[C@H]1O[C@@H](n2cnc3c(NCc4ccc(N)cc4)ncnc32)[C@H](O)[C@@H]1O | 0.125
O=C1NC(=O)/C(=C\c2ccc3nccnc3c2)S1 | 2.84
O=C(O)CCc1nc(-c2ccccc2)c(-c2ccccc2)o1 [Oxaprozin] | -0.11
Clc1ccc2c(c1)C(N1CCNCC1)=Nc1ccccc1O2 [Amoxapine] | 0.34
NCCCCC(=O)O [5-Aminovaleric acid hydrochloride] | 0.189
CC(C)(Oc1ccc(CCNC(=O)c2ccc(Cl)cc2)cc1)C(=O)O [Bezafibrate] | 0.518
CC(C)(C)c1ccc(/C=C/C(=O)Nc2ccc3c(c2)OCCO3)cc1 | 0.0888
Cc1ccc(N(CC2=NCCN2)c2cccc(O)c2)cc1 [Phentolamine mesylate] | 0.504
CC(C)NCC(O)c1ccc(O)c(O)c1 (racemic) [(±)-Isoproterenol hydrochloride] | 0.469
C[C@]12CCC(=O)C=C1CC[C@@H]1[C@@H]2C(=O)C[C@@]2(C)[C@H]1CC[C@]2(O)C(=O)CO [Cortisone] | 0.00153
COCCCC/C(=N\OCCN)c1ccc(C(F)(F)F)cc1 [Fluvoxamine maleate] | 0.216
O=C1/C(=C/c2cccs2)CC/C1=C\c1cccs1 | 0.584
O=C(O)C1CCCNC1 (racemic) [(±)-Nipecotic acid] | 0.101
CCN(CC)CCNC(=O)c1ccc(NS(C)(=O)=O)cc1 [Sematilide monohydrochloride monohydrate] | 0.066
C[C@H](N[C@@H](CCc1ccccc1)C(=O)O)C(=O)N1CCC[C@H]1C(=O)O [Enalaprilat dihydrate] | 0.121
O=C(OCCN1CCOCC1)C1(c2ccccc2)CCCCC1 | 0.722
COc1ccc(CC(C)NCC(O)c2ccc(O)c(NC=O)c2)cc1 (centres undefined) [Formoterol] | 0.342

Compound | cFRET/donor change
CCCCCN(C)CCC(O)(P(=O)(O)O)P(=O)(O)O [Ibandronate sodium] | 0.0449
CN(C)C[C@H](O)Cn1c2ccc(Br)cc2c2cc(Br)ccc21 (racemic) [Wiskostatin] | 0.951
c1ccc2c(c1)CCCC2C1=NCCN1 (centres undefined) [Tetrahydrozoline hydrochloride] | 0.174
C[C@@H](O)[C@H]1C(=O)N2C(C(=O)O)=C(SCCNC=N)C[C@H]12 [Imipenem monohydrate] | 0.461
N[C@@H](CC(=O)O)C(=O)O [L-Aspartic acid] | -0.0562
C[C@](N)(Cc1ccc(O)cc1)C(=O)O [L-alpha-Methyl-p-tyrosine] | -0.261
CNCCNS(=O)(=O)c1cccc2cnccc12 [H-8 dihydrochloride] | -0.319
O=C(O)Cn1c(C(=O)Nc2nc(-c3ccccc3Cl)cs2)cc2ccccc21 | 0.298
CCNC(=O)[C@H]1O[C@@H](n2cnc3c(N)nc(NCCc4ccc(CCC(=O)O)cc4)nc32)[C@H](O)[C@@H]1O | -0.069
C[N+](C)(C)CCOP(=O)(O)OP(=O)([O-])OC[C@H]1O[C@@H](n2ccc(N)nc2=O)[C@H](O)[C@@H]1O [Cytidine 5'-diphosphocholine sodium salt hydrate] | 0.219
O=C1NC(=O)C(c2ccccc2[N+](=O)[O-])=C1Nc1ccc(O)c(Cl)c1 | -0.443
CC1(C)CCC=[N+]1[O-] [5,5-Dimethyl-1-pyrroline-N-oxide] | 0.48
C=CC(N)CCC(=O)O (racemic) [(±)-gamma-Vinyl GABA] | -0.109
O=C(O)C1CCNCC1 [Isonipecotic acid] | 0.0285
CC1(C)CCC(NC(=O)[C@@H](N)CCC(=O)O)CC1 | 0.318
CC(=Cc1ccc(C(=O)O)cc1)c1ccc2c(c1)C(C)(C)CCC2(C)C | 0.422
O=C(O)CCCCCCCC(=O)O [Azelaic acid] | 0.358
COC(=O)Nc1nc2cc(C(=O)c3cccs3)ccc2[nH]1 [Nocodazole] | -0.0123
CCN[C@H]1CN(CCCOC)S(=O)(=O)c2sc(S(N)(=O)=O)cc21 [Brinzolamide] | -0.0238
CN(C)CCC(c1ccc(Cl)cc1)c1ccccn1 (racemic) [(±)-Chlorpheniramine maleate] | 0.264
CC(C)c1c(C(=O)Nc2ccccc2)c(-c2ccccc2)c(-c2ccc(F)cc2)n1CC[C@@H](O)C[C@@H](O)CC(=O)O [Atorvastatin calcium salt trihydrate] | -0.0539

Look-ups from the list.
COC(=O)Nc1nc2cc(C(=O)c3cccs3)ccc2[nH]1 [Nocodazole] | cFRET/donor change: -0.0123
O=C(O)C1CCCNC1 (racemic) [(±)-Nipecotic acid] | cFRET/donor change: 0.101
O=C(O)CCc1nc(-c2ccccc2)c(-c2ccccc2)o1 [Oxaprozin] | cFRET/donor change: -0.11

(continued)

Compound | cFRET/donor change
COc1ccc(-c2cc(=O)c3c(O)c(OC)c(OC)cc3o2)cc1O [Eupatorin] | 0.395
CC[N+](C)(C)c1cccc(O)c1 [Edrophonium chloride] | 0.32
NCCc1c[nH]cn1 [Histamine dihydrochloride] | -0.0794
Cc1cn[nH]c1 [4-Methylpyrazole hydrochloride] | -0.121
CC(C)(C=O)Cc1cc(C(C)(C)C)c(O)c(C(C)(C)C)c1 | 0.29
CN1CCC(=C2c3ccccc3C=Cc3ccccc32)CC1 [Cyproheptadine hydrochloride] | 0.46
CC(C)(C)NCC(O)COc1cccc2[nH]c(=O)[nH]c12 (racemic) | 0.178
NNCCc1ccccc1 [Phenelzine sulfate] | 0.486
NC1(C(=O)O)CCCCC1 [1-Amino-1-cyclohexanecarboxylic acid hydrochloride] | 0.0615
NCCC[C@](N)(C(=O)O)C(F)F (racemic) [DL-alpha-Difluoromethylornithine hydrochloride] | 0.232
N=C(NC(=O)c1nc(Cl)c(N)nc1N)Nc1ccccc1 [Phenamil methanesulfonate] | 0.275
C#CC(N)CCC(=O)O (centres undefined) [gamma-Acetylinic GABA] | 0.24
CC(N/C(=N\C#N)Nc1ccncc1)C(C)(C)C (centres undefined) [Pinacidil] | 0.149
O=c1cc(-c2ccccc2)oc2c(O)c(O)ccc12 [7,8-Dihydroxyflavone hydrate] | -0.0745
CCN(CC)CCOC(=O)C1(C2CCCCC2)CCCCC1 [Dicyclomine hydrochloride] | 0.39
Oc1cc(O)c2c(c1)O[C@H](c1ccc(O)c(O)c1)[C@@H](O)C2 [(+)-Catechin Hydrate] | 0.289
C[N+]1(C)CCC(OC(=O)C(c2ccccc2)c2ccccc2)CC1 [4-DAMP methiodide] | 0.0138
C[N+]1(C)CCC(OC(=O)C(c2ccccc2)c2ccccc2)CC1 | -0.0299
CN(C)CCCN1c2ccccc2Sc2ccc(C(F)(F)F)cc21 [Triflupromazine hydrochloride] | 0.712
O=c1[nH]c(=O)n(C2CCCO2)cc1F (centres undefined) [Tegafur] | 0.268
CCC(C)N(C)C(=O)c1cc2ccccc2c(-c2ccccc2Cl)n1 (centres undefined) | 0.438

Compound | cFRET/donor change
Nc1nc2ccc(Cl)cc2c2nc(-c3ccco3)nn12 | 0.163
Nc1ncnc2c1c(-c1ccc(Oc3ccccc3)cc1)cn2C1CCCC1 | 0.0708
N[C@@H]1[C@H]2CN(c3nc4c(cc3F)c(=O)c(C(=O)O)cn4-c3ccc(F)cc3F)C[C@@H]12 [Trovafloxacin mesylate] | 0.3
CN1CCN(CCCN2c3ccccc3Sc3ccc(Cl)cc32)CC1 [Prochlorperazine dimaleate] | 0.466
Cn1ccc2cc(NC(=O)Nc3cccnc3)ccc21 | 0.093
O=C(/C=C/c1ccc(O)c(O)c1)OCCc1ccccc1 [Caffeic acid phenethyl ester] | 0.294
CC(=O)OCC(CCn1cnc2cnc(N)nc21)COC(C)=O [Famciclovir] | -0.279
NNc1nncc2ccccc12 [Hydralazine hydrochloride] | 0.85
CC(C)C[C@H](NP(=O)(O)O[C@H]1O[C@H](C)[C@@H](O)[C@H](O)[C@@H]1O)C(=O)N[C@@H](Cc1c[nH]c2ccccc12)C(=O)O [Phosphoramidon disodium] | 0.483
Cc1ccc([N+](=O)[O-])cc1S(=O)(=O)N(C)C | -0.04
COc1ccc(-c2cc3ncc(C)n3c(Nc3ncccc3C(N)=O)n2)cc1OC [BAY 61-3606 hydrochloride hydrate] | 0.195
COc1ccc(C2CNC(=O)C2)cc1OC1CCCC1 (centres undefined) [Rolipram] | 0.312
CC(/C=C/c1cccc(Oc2ccc(F)cc2)c1)N(O)C(N)=O (centres undefined) | 0.179
O=c1c(O)c(-c2ccc(O)cc2O)oc2cc(O)cc(O)c12 [Morin] | -3.25
COc1cc([C@@H]2c3cc4c(cc3[C@@H](O[C@@H]3O[C@@H]5CO[C@@H](C)O[C@H]5[C@H](O)[C@H]3O)[C@H]3COC(=O)[C@H]23)OCO4)cc(OC)c1O [Etoposide] | 0.0173
COc1ccccc1OCC(O)CN1CCN(CC(=O)Nc2c(C)cccc2C)CC1 (centres undefined) [Ranolazine dihydrochloride] | 0.057
O=[N+]([O-])c1cccc2cn[nH]c12 [7-Nitroindazole] | 0.565
COc1cc(/C=C(\C#N)C(=O)Nc2nnc(C(F)(F)F)s2)ccc1OCc1ccc(C(F)(F)F)cc1C(F)(F)F | -0.194
CCCNCC(O)COc1ccccc1C(=O)CCc1ccccc1 (centres undefined) [Propafenone hydrochloride] | 0.651
N[C@H](C(=O)O)[C@H](O)c1ccc(O)c(O)c1 | 0.419
CN(C)c1nc(N(C)C)nc(N(C)C)n1 [Altretamine] | -0.0875

Part of the list above, in CSV form.
Compound,cFRET/donor change
Cc1ccc([N+](=O)[O-])cc1S(=O)(=O)N(C)C,-0.04
COc1ccc(-c2cc3ncc(C)n3c(Nc3ncccc3C(N)=O)n2)cc1OC [BAY 61-3606 hydrochloride hydrate],0.195
COc1ccc(C2CNC(=O)C2)cc1OC1CCCC1 (centres undefined) [Rolipram],0.312
